Some of the results follow. Cut-off read from the data, not from the text of the source: active = 150% or more and inactive = the rest. Many values rest on one well or one pass, so single values are uncertain.
test system: Staphylococcus aureus JE2-lux inside RAW 264.7 macrophages; experiment: intracellular bacterial bioluminescence relative to DMSO vehicle; higher = higher intracellular bacterial metabolic activity; conditions: 10 µM; treatment time 4 h; gentamicin 50 µg/ml

Intracellular bacterial bioluminescence, active:
O=C(CCCS(=O)(=O)c1ccccc1)Nc1nc2c(Cl)ccc(Cl)c2s1 192%
COc1cc2c(cc1OC)C(c1cc3cc(C)ccc3[nH]c1=O)N(C(=O)Nc1ccccc1)CC2 (stereo unspecified) 163%
COc1ccc(-c2n[nH]c3nc(-c4ccc(F)cc4)cc(C(=O)NC(C)c4ccccc4)c23)cc1 (stereo unspecified) 153%

Intracellular bacterial bioluminescence, inactive:
NC(=O)c1cc2cc(Br)ccc2o/c1=N\c1ccc(Oc2ccccc2)cc1 117%
O=c1c2nnn(Cc3ccccc3F)c2ncn1Cc1cccc([N+](=O)[O-])c1 90.8%
CCc1nnc(NC(=O)CSc2ncnc3c(-c4ccc(C)cc4)nsc23)s1 108%
Clc1ccc(C(CNc2nn3cnnc3c3ccccc23)N2CCCCC2)cc1 (stereo unspecified) 77.5%
N#C/C(C(=O)c1ccc2c(c1)OCCO2)=C1/Nc2ccccc2S1 80.8%
COc1cc(OC)cc(C(=O)NCC(=O)N/N=C/c2ccccc2OC)c1 98.7%
O=C(NNc1nc2c(F)cccc2s1)c1cc(-c2cccs2)nc2ccccc12 112%
O=C1NC(=O)c2cc(NC(=O)c3cccc4ccccc34)ccc21 118%
O=C(NCCc1ccccc1)c1cnc2c(F)cccc2c1O 97.5%
CCc1ccccc1NC(=O)c1sc2nc3c(c(-c4cccs4)c2c1N)CCC3 103%
Cc1nn(-c2nc3ccccc3n2C)c2c1C(c1ccsc1)CC(=O)N2 (stereo unspecified) 56.2%
CC1=CC2=NC(=O)CC(C)(C(=O)Nc3cccc(-c4csnn4)c3)N2C=C1 (stereo unspecified) 102%
COc1cc(C(=O)N/N=C/c2ccc(Br)o2)cc(OC)c1OC 63.1%
Cc1cccc(C)c1NC(=O)N1CCC(C(=O)c2ccc(F)cc2)CC1 127%
COc1ccccc1N1CCN(CCCNC(=O)c2c(-c3ccccc3)nnc3ccccc23)CC1 79.4%
c1cnc(-c2nc(-c3ccc(N4CCCCC4)cc3)no2)cn1 117%
N#Cc1ccccc1NC(=O)/N=c1\c2ccccc2[nH]c(=O)n1CCc1ccccc1 123%
Cc1cccc(-c2noc(CCn3c(=O)[nH]c4ccccc4c3=O)n2)c1 73.2%
CNC(=O)Cn1cc(OC)c(=O)cc1CSc1nnc(C)s1 124%
Cc1ccc2nc(-c3ccc(O)c(O)c3)c(NC3CCCC3)n2c1 108%
Cc1nc2ccn(Cc3ccccc3)c(=O)c2cc1C(=O)NCCC1=CCCCC1 62.6%
O=C(NCc1ccccn1)c1ccc2c(=O)n(Cc3ccccc3Cl)c(=S)[nH]c2c1 99%
Cc1nnc2sc(SCC(=O)Nc3nccs3)nn2c1=O 109%
O=C1NC(=O)/C(=C\c2ccc(-c3cccc(Cl)c3Cl)o2)S1 97.2%
Cc1cc(OC(=O)C(c2ccccc2)c2ccccc2)c([N+](=O)[O-])c(=O)[nH]1 111%
O=C1N/C(=N/c2ccc(F)cc2)S/C1=C\c1ccc(F)cc1 94.8%
CCc1nc(SCc2cccnc2)c2c(=O)n(C)c(=O)n(C)c2n1 57.3%
CCC(Sc1nc2ncccc2o1)C(=O)N1CCOc2ccc(C)cc21 (stereo unspecified) 108%
CC(C)c1nc2ccccc2c2nnc(SCC(=O)NCc3ccccc3)n12 81.3%
O=C(c1cc(F)cc(F)c1)N1CCc2nc(N3CCCC3)[nH]c(=O)c2C1 115%
CCOc1ccc2nc(-n3nc(C)c4c3NC(=O)CC4c3cnn(CC)c3)sc2c1 (stereo unspecified) 79.3%
Cc1sc2nc(SCC(=O)Nc3c[nH]c(=O)[nH]c3=O)[nH]c(=O)c2c1C 117%
O=c1[nH]c2ccccc2nc1/C=C/c1ccc(Cl)cc1Cl 83.1%
O=C(CCN1C(=O)/C(=C/c2ccc(Cl)cc2Cl)SC1=S)Nc1cccnc1 94.4%
CCOC(=O)c1cc(-c2ccccn2)c(N2CCOCC2)s1 95.9%
Cn1c(SCC(=O)NCC2CCCO2)ncc(C(=O)Nc2ccccc2)c1=O (stereo unspecified) 35.7%
Cc1c(NC(=O)c2ncoc2-c2ccc(F)cc2)c(=O)n(-c2ccccc2)n1C 101%
Cc1ccc(-c2ocnc2C(=O)N2CCN(c3ncccn3)CC2)cc1 112%
Cc1cc(NC2CCCCC2)n2c(nc3ccccc32)c1C#N 137%
Cc1cc(C)c(NC(=O)c2sc3nc4c(cc3c2N)C(=O)CC(C)(C)C4)c(C)c1 95.3%
O=C(NCc1ccccc1)c1nn(-c2ccccc2)c2nc[nH]c(=O)c12 92.4%
O=C1C=C/C(=N/Nc2ccc3c(c2)OCO3)c2cccnc21 60%
O=CC1CSc2[nH]c(=O)sc2C1c1ccc(OCc2ccccc2)cc1 (stereo unspecified) 29.6%
CCOc1cccc2c1Oc1nc(-c3ccc(OC)c(OC)c3)[nH]c(=O)c1C2 108%
Cc1nc2ccccc2c2nn(CC(=O)NC3CCCC3)c(=O)n12 96%
O=C(CSCc1nc(O)c2nnn(Cc3ccc(F)cc3)c2n1)Nc1cccc2ccccc12 99.2%
Cc1ccc(Cl)cc1N1CCN(C(=O)c2cnc(N3CCCCC3)c3ccccc23)CC1 108%
O=C(Cn1cnc2c(cnn2-c2ccc(F)cc2)c1=O)Nc1cccc([N+](=O)[O-])c1 95.9%
CCOC(=O)C(=O)NCC(c1ccco1)S(=O)(=O)c1ccccc1 (stereo unspecified) 98.5%
COC(=O)c1cc(N/N=C2\C=CC(=O)c3ccccc32)cc(C(=O)OC)c1 88.2%
Cc1cc(N(C)C)nc(N2CCN(C(=O)c3ccc(F)cc3)CC2)n1 84.5%
O=C(Cn1nc(C(F)(F)F)c2cccn2c1=O)NC1CCCC1 91.4%
O=C(NCc1cccnc1)C(=O)Nc1cc2c3c(c1)CCC(=O)N3CCC2 102%
O=C(CCCN1C(=O)S/C(=C/c2ccccc2)C1=S)Nc1ccc(C(=O)O)cc1 119%
Cc1cccc(-c2nc3scc(CCNC(=O)c4ccc5c(c4)OCO5)n3n2)c1 94.2%
COc1ccc(-c2cc(C(F)(F)F)c(C#N)c(SCCC(=O)O)n2)cc1 73.6%
CC1CCc2nc(Nc3nc4ccc(F)cc4s3)sc2C1 (stereo unspecified) 122%
CCCCSc1nc2c(c(=O)[nH]1)C(c1ccc(OC)cc1)C1=C(CCCC1=O)N2 (stereo unspecified) 105%
O=C(NCc1ccccn1)c1cc2c(ccc3ccccc32)oc1=O 93.1%
C=CCc1c(C)nc(-c2ccccc2)nc1Nc1ccc(C(=O)O)cc1 117%
NC(=O)C1Cc2ccccc2N1C(=O)c1ccc(S(=O)(=O)N2CCCC2)cc1 (stereo unspecified) 112%
CCOC(=O)C(C)NC(=O)Nc1c(-c2cccnc2)[nH]c2ccc(Cl)cc12 (stereo unspecified) 102%
COc1ccc(C(=O)NN2C(=O)c3ccccc3C2=O)cc1 88.6%
COc1cccc(NC(=O)CSc2nc(-c3ccccc3)no2)c1 112%
COc1ccc(C2C3=C(CCCC3=O)Nc3[nH]c(=O)[nH]c(=O)c32)cc1 (stereo unspecified) 111%
CCOc1ccc(-n2c(C)c(C)n3c4c(=O)[nH]c(=O)n(C)c4nc23)cc1 120%
CC(=O)Nc1ccc2nc(Nc3nc4ccc(F)cc4s3)sc2c1 95%
O=C(Nc1ccccc1Br)c1csc2c1CCCC2 61.3%
Cc1ccc(-n2nc3ccc(NC(=O)C(C)NS(=O)(=O)c4ccc(C)cc4)cc3n2)cc1 (stereo unspecified) 126%
COC(=O)c1ccccc1NC(=O)Nc1c(-c2ccncc2)[nH]c2c(Cl)cccc12 122%
NC(=O)c1cc2ccccc2o/c1=N\c1ccc(Cl)cc1Cl 116%
O=C(Cn1cnc2ccccc21)Nc1ccccc1 90.7%
CCCCNC(=O)CSc1nc(-c2ccc(C(C)C)cc2)no1 51%
COc1cccc(NC(=O)Cn2c(=O)cc(C)c3c(C)nn(-c4ccccc4)c32)c1 112%
CC(=O)NC(=O)c1cc2cc(Br)ccc2o/c1=N\c1ccc(F)cc1 106%
Cc1ccnc(NS(=O)(=O)c2ccc(NC(=O)c3cc(-c4cccs4)on3)cc2)n1 113%
Cc1c(C)n2c(SCC(=O)NCC3CCCO3)nnc2[nH]c1=O (stereo unspecified) 109%
O=C(N/N=C/c1ccco1)c1cc(Br)ccc1O 117%
Cc1ccc(NC(=O)Cn2cc(S(=O)(=O)c3ccccc3)c(=O)c3cc(C)ccc32)c(C)c1 98.8%
CN(CCCC(=O)Nc1nccs1)S(=O)(=O)c1ccc(Cl)cc1 92.2%
NC(=O)c1cc2c(ccc3ccccc32)o/c1=N\c1cc(F)ccc1F 84.4%
CC(C)(C)c1cc(O)c2oc(=O)c(S(=O)(=O)c3ccc(F)cc3)cc2c1 101%
O=C(Nc1c2c(nn1-c1ccc(Cl)cc1)CS(=O)(=O)C2)c1ccc(Cl)cc1Cl 63.1%
COc1ccc2c(c1)cc(C)c1nn(CC(=O)Nc3cccc(C(C)=O)c3)c(=O)n12 31.8%
Cc1ccc(NS(=O)(=O)c2ccc3c(c2)C(=O)c2ccccc2C3=O)c(C)c1 103%
O=C(Nc1ccc(NC(=O)c2cccc3nccnc23)cc1)c1ccccn1 78.8%
CC(C)(C)C1CCc2c(sc3nc(CN4CCN(C(=O)c5ccco5)CC4)[nH]c(=O)c23)C1 (stereo unspecified) 86.8%
Cc1ccc(-c2noc3c(=O)n(CCC(=O)Nc4nc5ccc(C)cc5s4)cnc23)cc1 42.4%

A section of the results above, for reference:
Intracellular bacterial bioluminescence, inactive:
O=c1c2nnn(Cc3ccccc3F)c2ncn1Cc1cccc([N+](=O)[O-])c1 90.8%
CCc1nnc(NC(=O)CSc2ncnc3c(-c4ccc(C)cc4)nsc23)s1 108%
Clc1ccc(C(CNc2nn3cnnc3c3ccccc23)N2CCCCC2)cc1 (stereo unspecified) 77.5%
N#C/C(C(=O)c1ccc2c(c1)OCCO2)=C1/Nc2ccccc2S1 80.8%

Some of these compounds in order of molar mass, rising:
Intracellular bacterial bioluminescence, inactive:
Cc1cc(N(C)C)nc(N2CCN(C(=O)c3ccc(F)cc3)CC2)n1 84.5%
CCOc1ccc2nc(-n3nc(C)c4c3NC(=O)CC4c3cnn(CC)c3)sc2c1 (stereo unspecified) 79.3%
Cc1ccc(-n2nc3ccc(NC(=O)C(C)NS(=O)(=O)c4ccc(C)cc4)cc3n2)cc1 (stereo unspecified) 126%
